The other results are listed elsewhere or left out.
Key:
Experiment in all cases: glycan array binding signal (z-score within array); higher = stronger binding
Details in all cases: glycan notation: IUPAC condensed, linker removed
[1] = molecular target: Neu5Ac(a2-6)Gal(b1-4)GlcNAc(b1-3)Gal(b1-4)GlcNAc(b1-3)Gal(b1-4)GlcNAc
Outline: (§1)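 Columns mapping to the same glycan were averaged after glycan names were converted to IUPAC-condensed notation. The data come from 3228 arrays in the Consortium for Functional Glycomics database, limited to those with an available protein sequence. Binding is reported as a within-array Z-score averaged across arrays of one protein sequence and across linkers.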

[2] = molecular target: Neu5Ac(a2-6)Gal(b1-4)GlcNAc(b1-3)Gal(b1-4)GlcNAc(b1-3)Gal(b1-4)GlcNAc(b1-2)Man(a1-3)[Neu5Ac(a2-6)Gal(b1-4)GlcNAc(b1-3)Gal(b1-4)GlcNAc(b1-3)Gal(b1-4)GlcNAc(b1-2)Man(a1-6)]GalNAc
Outline: as §1

[3] = molecular target: Neu5Ac(a2-6)Gal(b1-4)GlcNAc(b1-3)Gal(b1-4)GlcNAc(b1-3)GalNAc
Outline: as §1

[4] = molecular target: Neu5Ac(a2-6)Gal(b1-4)GlcNAc(b1-3)Gal(b1-4)GlcNAc(b1-3)[Neu5Ac(a2-6)Gal(b1-4)GlcNAc(b1-3)Gal(b1-4)GlcNAc(b1-6)]GalNAc
Outline: as §1

[5] = molecular target: Neu5Ac(a2-6)Gal(b1-4)GlcNAc(b1-3)Gal(b1-4)GlcNAc(b1-6)[Gal(b1-3)]GalNAc
Outline: as §1

[6] = molecular target: Neu5Ac(a2-6)Gal(b1-4)GlcNAc(b1-3)Gal(b1-4)[Fuc(a1-3)]GlcNAc(b1-3)Gal(b1-4)[Fuc(a1-3)]GlcNAc
Outline: as §1

[7] = molecular target: Neu5Ac(a2-6)Gal(b1-4)GlcNAc(b1-3)GalNAc
Outline: as §1

[8] = molecular target: Neu5Ac(a2-6)Gal(b1-4)GlcNAc(b1-3)[Neu5Ac(a2-6)Gal(b1-4)GlcNAc(b1-6)]GalNAc
Outline: as §1

[9] = molecular target: Neu5Ac(a2-6)Gal(b1-4)GlcNAc(b1-6)GalNAc
Outline: as §1

[10] = molecular target: Neu5Ac(a2-6)Gal(b1-4)GlcNAc(b1-6)[Gal(b1-3)GlcNAc(b1-3)]Gal(b1-4)Glc
Outline: as §1

[11] = molecular target: Neu5Ac(a2-6)Gal(b1-4)GlcNAc(b1-6)[Gal(b1-3)]GalNAc
Outline: as §1

[12] = molecular target: Neu5Ac(a2-6)Gal(b1-4)GlcNAc6S
Outline: as §1

Neu5Ac(a2-6)GalNAc = molecular target: Neu5Ac(a2-6)GalNAc
Outline: as §1

[13] = molecular target: Neu5Ac(a2-6)GalNAc(b1-4)GlcNAc
Outline: as §1

[14] = molecular target: Neu5Ac(a2-6)GalNAc(b1-4)GlcNAc6S
Outline: as §1

[15] = molecular target: Neu5Ac(a2-6)GlcNAc(b1-4)GlcNAc
Outline: as §1

[16] = molecular target: Neu5Ac(a2-6)GlcNAc(b1-4)GlcNAc(b1-4)GlcNAc
Outline: as §1

Neu5Ac(a2-8)Neu5Ac = molecular target: Neu5Ac(a2-8)Neu5Ac
Outline: as §1

[17] = molecular target: Neu5Ac(a2-8)Neu5Ac(a2-3)Gal(b1-3)GalNAc(b1-4)[Neu5Ac(a2-3)]Gal(b1-4)Glc
Outline: as §1

[18] = molecular target: Neu5Ac(a2-8)Neu5Ac(a2-3)Gal(b1-3)GalNAc(b1-4)[Neu5Ac(a2-8)Neu5Ac(a2-3)]Gal(b1-4)Glc
Outline: as §1

[19] = molecular target: Neu5Ac(a2-8)Neu5Ac(a2-3)Gal(b1-4)Glc
Outline: as §1

[20] = molecular target: Neu5Ac(a2-8)Neu5Ac(a2-3)Gal(b1-4)GlcNAc
Outline: as §1

[21] = molecular target: Neu5Ac(a2-8)Neu5Ac(a2-3)[Gal(b1-3)GalNAc(b1-4)]Gal(b1-4)Glc
Outline: as §1

[22] = molecular target: Neu5Ac(a2-8)Neu5Ac(a2-3)[GalNAc(b1-4)]Gal(b1-4)Glc
Outline: as §1

[23] = molecular target: Neu5Ac(a2-8)Neu5Ac(a2-8)Neu5Ac
Outline: as §1

[24] = molecular target: Neu5Ac(a2-8)Neu5Ac(a2-8)Neu5Ac(a2-3)Gal(b1-4)Glc
Outline: as §1

[25] = molecular target: Neu5Ac(a2-8)Neu5Ac(a2-8)Neu5Ac(a2-3)[Gal(b1-3)GalNAc(b1-4)]Gal(b1-4)Glc
Outline: as §1

[26] = molecular target: Neu5Ac(a2-8)Neu5Ac(a2-8)Neu5Ac(a2-3)[GalNAc(b1-4)]Gal(b1-4)Glc
Outline: as §1

[27] = molecular target: Neu5Ac(a2-8)Neu5Ac(a2-8)Neu5Ac(a2-8)Neu5Ac(a2-3)[GalNAc(b1-4)]Gal(b1-4)Glc
Outline: as §1

[28] = molecular target: Neu5Ac(a2-8)Neu5Gc(a2-3)Gal(b1-4)GlcNAc
Outline: as §1

[29] = molecular target: Neu5Ac(b2-6)Gal(b1-4)GlcNAc
Outline: as §1

Neu5Ac(b2-6)GalNAc = molecular target: Neu5Ac(b2-6)GalNAc
Outline: as §1

[30] = molecular target: Neu5Ac9Ac(a2-3)Gal(b1-3)GlcNAc
Outline: as §1

[31] = molecular target: Neu5Ac9Ac(a2-3)Gal(b1-4)GlcNAc
Outline: as §1

[32] = molecular target: Neu5Ac9Ac(a2-6)Gal(b1-4)GlcNAc
Outline: as §1

[33] = molecular target: Neu5Gc(a2-3)Gal(b1-3)GlcNAc
Outline: as §1

[34] = molecular target: Neu5Gc(a2-3)Gal(b1-3)[Fuc(a1-4)]GlcNAc
Outline: as §1

Neu5Gc(a2-3)Gal(b1-4)Glc = molecular target: Neu5Gc(a2-3)Gal(b1-4)Glc
Outline: as §1

[35] = molecular target: Neu5Gc(a2-3)Gal(b1-4)GlcNAc
Outline: as §1

[36] = molecular target: Neu5Gc(a2-3)Gal(b1-4)GlcNAc(b1-3)Gal(b1-4)GlcNAc(b1-2)Man(a1-3)[Neu5Gc(a2-3)Gal(b1-4)GlcNAc(b1-3)Gal(b1-4)GlcNAc(b1-2)Man(a1-6)]Man(b1-4)GlcNAc(b1-4)GlcNAc
Outline: as §1

[37] = molecular target: Neu5Gc(a2-3)Gal(b1-4)[Fuc(a1-3)]GlcNAc
Outline: as §1

[38] = molecular target: Neu5Gc(a2-6)Gal(b1-4)GlcNAc
Outline: as §1

Neu5Gc(a2-6)GalNAc = molecular target: Neu5Gc(a2-6)GalNAc
Outline: as §1

[39] = molecular target: Neu5Gc(a2-8)Neu5Ac(a2-3)Gal(b1-4)GlcNAc
Outline: as §1

[40] = molecular target: Neu5Gc(a2-8)Neu5Gc(a2-3)Gal(b1-4)GlcNAc
Outline: as §1

B1: FGF1 (Homo sapiens), P05230 (protein)
chain: MAEGEITTFTALTEKFNLPPGNYKKPKLLYSNGGHFLRILPDGTVDGTRDRSDQHIQLQLSAESVGEVYIKSTETGQYLAMTDGLLYGSQTPNEECLFLERLEENHYNTYISKHAEKNWFVGLKKNGSCKRGPRTHYGQAILFLPLPASSED
[1]
  glycan array binding signal (z-score): -0.546
[2]
  glycan array binding signal (z-score): 1.92
[3]
  glycan array binding signal (z-score): -0.825
[4]
  glycan array binding signal (z-score): 1.56
[5]
  glycan array binding signal (z-score): -0.81
[6]
  glycan array binding signal (z-score): 0.127
[7]
  glycan array binding signal (z-score): 1.32
[8]
  glycan array binding signal (z-score): -0.709
[9]
  glycan array binding signal (z-score): 4.24
[10]
  glycan array binding signal (z-score): -0.583
[11]
  glycan array binding signal (z-score): -0.644
[12]
  glycan array binding signal (z-score): 0.441
Neu5Ac(a2-6)GalNAc
  glycan array binding signal (z-score): -0.658
[13]
  glycan array binding signal (z-score): -0.944
[14]
  glycan array binding signal (z-score): -0.597
[15]
  glycan array binding signal (z-score): -0.312
[16]
  glycan array binding signal (z-score): -0.474
Neu5Ac(a2-8)Neu5Ac
  glycan array binding signal (z-score): -0.154
[17]
  glycan array binding signal (z-score): -0.453
[18]
  glycan array binding signal (z-score): 1.18
[19]
  glycan array binding signal (z-score): -0.768
[20]
  glycan array binding signal (z-score): -0.695
[21]
  glycan array binding signal (z-score): -0.524
[22]
  glycan array binding signal (z-score): -0.838
[23]
  glycan array binding signal (z-score): -0.501
[24]
  glycan array binding signal (z-score): 1.57
[25]
  glycan array binding signal (z-score): 0.41
[26]
  glycan array binding signal (z-score): -0.452
[27]
  glycan array binding signal (z-score): -0.636
[28]
  glycan array binding signal (z-score): -0.833
[29]
  glycan array binding signal (z-score): -0.874
Neu5Ac(b2-6)GalNAc
  glycan array binding signal (z-score): -0.985
[30]
  glycan array binding signal (z-score): 1.47
[31]
  glycan array binding signal (z-score): -0.689
[32]
  glycan array binding signal (z-score): -0.641
[33]
  glycan array binding signal (z-score): -0.141
[34]
  glycan array binding signal (z-score): 1.13
Neu5Gc(a2-3)Gal(b1-4)Glc
  glycan array binding signal (z-score): -0.215
[35]
  glycan array binding signal (z-score): 0.029
[36]
  glycan array binding signal (z-score): 0.622
[37]
  glycan array binding signal (z-score): 0.18
[38]
  glycan array binding signal (z-score): 0.431
Neu5Gc(a2-6)GalNAc
  glycan array binding signal (z-score): 1.07
[39]
  glycan array binding signal (z-score): -0.861
[40]
  glycan array binding signal (z-score): -0.778

Source: the supplement of paper PMC8728848
